What was measured:
[1] = system: PTZ-induced lethal convulsion in mice; test: Pentylenetetrazole (PTZ) induced seizure test; type: in vivo, Male NMRI mice; details: dose 2 mg/kg ip, with flumazenil 1 mg/kg ip 15 min before seizure induction
mice on rotating rod = test: Rotarod test (acute neurotoxicity, muscle relaxant activity); type: in vivo; details: dose 2 mg/kg ip, 30 min after injection, 5 rpm, Mean ± SEM, n = 4–6
Description: The last in vivo assay was the determination of neurotoxic potential (muscle relaxant activity) of the potent anticonvulsant compounds 8k and 8L by rotarod method. […] […].

CN1C(=O)CN=C(c2ccccc2)c2cc(Cl)ccc21 [Diazepam, reference compound]
PTZ Number of animals protected / Number of tested animals [1]: 0/6 | Time as seconds to stay on rotating bar (mice on rotating rod): 3.80 ± 0.40 s
